No constants are given. Whether binding was seen depends on the method and setting. Some results given as binding are weak or reduced against the parent protein; the word gives no strength.
B1: MetMAb × BHA10 IgG BsAb, CH1/Cκ design 14.3.1.1 (bispecific antibody)
heavy 1: EVQLVESGGGLVQPGGSLRLSCAASGYTFTSYWLHWVRKAPGKGLEWVGMIDPSNSDTRFNPEFKDRFTISADTSKNTAYLQMNSLRAEDTAVYYCATYRSYVTPLDYWGQGTLVTVSSASTKGPSVFPLAPSSKSTSGGTAALGCLVADYFPEPVTVSWNSGALTSGVHTFPAVLQSSGLYSLASVVTVPSSSLGTQTYICNVNHKPSNTKVDKKVEPKSCDKTHTCPPCPAPELLGGPSVFLFPPKPKDTLMISRTPEVTCVVVDVSHEDPEVKFNWYVDGVEVHNAKTKPREEQYQSTYRVVSVLTVLHQDWLNGKEYKCKVSNKALPAPIEKTISKAKGQPREPQVYTLPPSREEMTDNQVSLTCLVKGFYPSDIAVEWESNGQPENNYKTTPPVLMSDGSFFLASKLTVDKSRWQQGNVFSCSVMHEALHNHYTQKSLSLSPG
light 1: RIQMTQSPSSLSASVGDRVTITCKSSQSLLYTSSQKNYLAWYQDKPGKAPKLLIYWASTRESGVPSRFSGSGSGTDFTLTISSLQPEDFATYYCQQYYAYPWTFGQGTKVEIKRTVAAPSVFIFPPSDEQLKSGTARVVCLLNNFYPREAKVQWKVDNALQSGNSQESVTEQDSKDSTYSLISTLTLSKADYEKHKVYACEVTHQGLSSPVTKSFNRGEC
heavy 2: QVQLVQSGAEVKKPGSSVKVSCKASGYTFTTYYLHWVRYAPGQGLEWMGWIYPGNVHAQYNEKFKGRVTITADKSTSTAYMELSSLRSEDTAVYYCARSWEGFPYWGRGTTVTVSSASTKGPSVFPLAPSSKSTSGGTAALGCLVKDYFPEPVTVSWNSGALTSGVHTFPAVLQSSGLYSLSSVVTVPSSSLGTQTYICNVNHKPSNTKVDEKVEPKSCDKTHTCPPCPAPELLGGPSVFLFPPKPKDTLMISRTPEVTCVVVDVSHEDPEVKFNWYVDGVEVHNAKTKPREEQYQSTYRVVSVLTVLHQDWLNGKEYKCKVSNKALPAPIEKTISKAKGQPRRPRVYTLPPSREEMTKNQVSLVCLVKGFYPSDIAVEWESNGQPENNYKTTPPVLDSDGSFFLYSVLTVDKSRWQQGNVFSCSVMHEALHNHYTQKSLSLSPG
light 2: DIQMTQSPSSLSASVGDRVTITCKASQNVGINVAWYQRKPGDAPKSLISSASYRYSGVPSRFSGSGSGTDFTLTISSLQPEDFATYFCQQYDTYPFTFGQGTKVEIKRTVAAPSVFIFPPSDKQLKSGTASVVCLLNNFYPREAKVQWKVDNALQSGNSQESVTEQDSKDSTYSLSSTLTLSKADYEKHKVYACEVTHQGLSSPVTKSFNRGEC
notes: Human IgG1; also called MetMAb × BHA10 14.3.1.1
B2: Pertuzumab × BHA10 IgG BsAb, CH1/Cκ design 14.3.1.2 (bispecific antibody)
heavy 1: EVQLVESGGGLVQPGGSLRLSCAASGFTFTDYTMDWVRKAPGKGLEWVADVNPNSGGSIYNQEFKGRFTLSVDRSKNTLYLQMNSLRAEDTAVYYCARNLGPSFYFDYWGQGTLVTVSSASTKGPSVFPLAPSSKSTSGGTAALGCLVADYFPEPVTVSWNSGALTSGVHTFPAVLQSSGLYSLGSVVTVPSSSLGTQTYICNVNHKPSNTKVDKKVEPKSCDKTHTCPPCPAPELLGGPSVFLFPPKPKDTLMISRTPEVTCVVVDVSHEDPEVKFNWYVDGVEVHNAKTKPREEQYQSTYRVVSVLTVLHQDWLNGKEYKCKVSNKALPAPIEKTISKAKGQPREPQVYTLPPSREEMTDNQVSLTCLVKGFYPSDIAVEWESNGQPENNYKTTPPVLMSDGSFFLASKLTVDKSRWQQGNVFSCSVMHEALHNHYTQKSLSLSPG
light 1: RIQMTQSPSSLSASVGDRVTITCKASQDVSIGVAWYQDKPGKAPKLLIYSASYRYTGVPSRFSGSGSGTDFTLTISSLQPEDFATYYCQQYYIYPYTFGQGTKVEIKRTVAAPSVFIFPPSDEQLKSGTARVVCLLNNFYPREAKVQWKVDNALQSGNSQESVTEQDSKDSTYSLISTLTLSKADYEKHKVYACEVTHQGLSSPVTKSFNRGEC
heavy 2: QVQLVQSGAEVKKPGSSVKVSCKASGYTFTTYYLHWVRYAPGQGLEWMGWIYPGNVHAQYNEKFKGRVTITADKSTSTAYMELSSLRSEDTAVYYCARSWEGFPYWGRGTTVTVSSASTKGPSVFPLAPSSKSTSGGTAALGCLVKDYFPEPVTVSWNSGALTSGVHTFPAVLQSSGLYSLSSVVTVPSSSLGTQTYICNVNHKPSNTKVDEKVEPKSCDKTHTCPPCPAPELLGGPSVFLFPPKPKDTLMISRTPEVTCVVVDVSHEDPEVKFNWYVDGVEVHNAKTKPREEQYQSTYRVVSVLTVLHQDWLNGKEYKCKVSNKALPAPIEKTISKAKGQPRRPRVYTLPPSREEMTKNQVSLVCLVKGFYPSDIAVEWESNGQPENNYKTTPPVLDSDGSFFLYSVLTVDKSRWQQGNVFSCSVMHEALHNHYTQKSLSLSPG
light 2: DIQMTQSPSSLSASVGDRVTITCKASQNVGINVAWYQRKPGDAPKSLISSASYRYSGVPSRFSGSGSGTDFTLTISSLQPEDFATYFCQQYDTYPFTFGQGTKVEIKRTVAAPSVFIFPPSDKQLKSGTASVVCLLNNFYPREAKVQWKVDNALQSGNSQESVTEQDSKDSTYSLSSTLTLSKADYEKHKVYACEVTHQGLSSPVTKSFNRGEC
notes: Human IgG1; also called Pertuzumab × BHA10 14.3.1.2
B3: Pertuzumab × BHA10 IgG BsAb, CH1/Cκ design 14.3.1.1 (bispecific antibody)
heavy 1: EVQLVESGGGLVQPGGSLRLSCAASGFTFTDYTMDWVRKAPGKGLEWVADVNPNSGGSIYNQEFKGRFTLSVDRSKNTLYLQMNSLRAEDTAVYYCARNLGPSFYFDYWGQGTLVTVSSASTKGPSVFPLAPSSKSTSGGTAALGCLVADYFPEPVTVSWNSGALTSGVHTFPAVLQSSGLYSLASVVTVPSSSLGTQTYICNVNHKPSNTKVDKKVEPKSCDKTHTCPPCPAPELLGGPSVFLFPPKPKDTLMISRTPEVTCVVVDVSHEDPEVKFNWYVDGVEVHNAKTKPREEQYQSTYRVVSVLTVLHQDWLNGKEYKCKVSNKALPAPIEKTISKAKGQPREPQVYTLPPSREEMTDNQVSLTCLVKGFYPSDIAVEWESNGQPENNYKTTPPVLMSDGSFFLASKLTVDKSRWQQGNVFSCSVMHEALHNHYTQKSLSLSPG
light 1: RIQMTQSPSSLSASVGDRVTITCKASQDVSIGVAWYQDKPGKAPKLLIYSASYRYTGVPSRFSGSGSGTDFTLTISSLQPEDFATYYCQQYYIYPYTFGQGTKVEIKRTVAAPSVFIFPPSDEQLKSGTARVVCLLNNFYPREAKVQWKVDNALQSGNSQESVTEQDSKDSTYSLISTLTLSKADYEKHKVYACEVTHQGLSSPVTKSFNRGEC
heavy 2: QVQLVQSGAEVKKPGSSVKVSCKASGYTFTTYYLHWVRYAPGQGLEWMGWIYPGNVHAQYNEKFKGRVTITADKSTSTAYMELSSLRSEDTAVYYCARSWEGFPYWGRGTTVTVSSASTKGPSVFPLAPSSKSTSGGTAALGCLVKDYFPEPVTVSWNSGALTSGVHTFPAVLQSSGLYSLSSVVTVPSSSLGTQTYICNVNHKPSNTKVDEKVEPKSCDKTHTCPPCPAPELLGGPSVFLFPPKPKDTLMISRTPEVTCVVVDVSHEDPEVKFNWYVDGVEVHNAKTKPREEQYQSTYRVVSVLTVLHQDWLNGKEYKCKVSNKALPAPIEKTISKAKGQPRRPRVYTLPPSREEMTKNQVSLVCLVKGFYPSDIAVEWESNGQPENNYKTTPPVLDSDGSFFLYSVLTVDKSRWQQGNVFSCSVMHEALHNHYTQKSLSLSPG
light 2: DIQMTQSPSSLSASVGDRVTITCKASQNVGINVAWYQRKPGDAPKSLISSASYRYSGVPSRFSGSGSGTDFTLTISSLQPEDFATYFCQQYDTYPFTFGQGTKVEIKRTVAAPSVFIFPPSDKQLKSGTASVVCLLNNFYPREAKVQWKVDNALQSGNSQESVTEQDSKDSTYSLSSTLTLSKADYEKHKVYACEVTHQGLSSPVTKSFNRGEC
notes: Human IgG1; also called Pertuzumab × BHA10 14.3.1.1
B4: MetMAb × BHA10 IgG BsAb, CH1/Cκ design 14.3.1.2 (bispecific antibody)
heavy 1: EVQLVESGGGLVQPGGSLRLSCAASGYTFTSYWLHWVRKAPGKGLEWVGMIDPSNSDTRFNPEFKDRFTISADTSKNTAYLQMNSLRAEDTAVYYCATYRSYVTPLDYWGQGTLVTVSSASTKGPSVFPLAPSSKSTSGGTAALGCLVADYFPEPVTVSWNSGALTSGVHTFPAVLQSSGLYSLGSVVTVPSSSLGTQTYICNVNHKPSNTKVDKKVEPKSCDKTHTCPPCPAPELLGGPSVFLFPPKPKDTLMISRTPEVTCVVVDVSHEDPEVKFNWYVDGVEVHNAKTKPREEQYQSTYRVVSVLTVLHQDWLNGKEYKCKVSNKALPAPIEKTISKAKGQPREPQVYTLPPSREEMTDNQVSLTCLVKGFYPSDIAVEWESNGQPENNYKTTPPVLMSDGSFFLASKLTVDKSRWQQGNVFSCSVMHEALHNHYTQKSLSLSPG
light 1: RIQMTQSPSSLSASVGDRVTITCKSSQSLLYTSSQKNYLAWYQDKPGKAPKLLIYWASTRESGVPSRFSGSGSGTDFTLTISSLQPEDFATYYCQQYYAYPWTFGQGTKVEIKRTVAAPSVFIFPPSDEQLKSGTARVVCLLNNFYPREAKVQWKVDNALQSGNSQESVTEQDSKDSTYSLISTLTLSKADYEKHKVYACEVTHQGLSSPVTKSFNRGEC
heavy 2: QVQLVQSGAEVKKPGSSVKVSCKASGYTFTTYYLHWVRYAPGQGLEWMGWIYPGNVHAQYNEKFKGRVTITADKSTSTAYMELSSLRSEDTAVYYCARSWEGFPYWGRGTTVTVSSASTKGPSVFPLAPSSKSTSGGTAALGCLVKDYFPEPVTVSWNSGALTSGVHTFPAVLQSSGLYSLSSVVTVPSSSLGTQTYICNVNHKPSNTKVDEKVEPKSCDKTHTCPPCPAPELLGGPSVFLFPPKPKDTLMISRTPEVTCVVVDVSHEDPEVKFNWYVDGVEVHNAKTKPREEQYQSTYRVVSVLTVLHQDWLNGKEYKCKVSNKALPAPIEKTISKAKGQPRRPRVYTLPPSREEMTKNQVSLVCLVKGFYPSDIAVEWESNGQPENNYKTTPPVLDSDGSFFLYSVLTVDKSRWQQGNVFSCSVMHEALHNHYTQKSLSLSPG
light 2: DIQMTQSPSSLSASVGDRVTITCKASQNVGINVAWYQRKPGDAPKSLISSASYRYSGVPSRFSGSGSGTDFTLTISSLQPEDFATYFCQQYDTYPFTFGQGTKVEIKRTVAAPSVFIFPPSDKQLKSGTASVVCLLNNFYPREAKVQWKVDNALQSGNSQESVTEQDSKDSTYSLSSTLTLSKADYEKHKVYACEVTHQGLSSPVTKSFNRGEC
notes: Human IgG1; also called MetMAb × BHA10 14.3.1.2

By UniProt entry, the sequences of proteins in these tests, tags left out. Residues count along the entry.
UniProt P36941, residues 28-227: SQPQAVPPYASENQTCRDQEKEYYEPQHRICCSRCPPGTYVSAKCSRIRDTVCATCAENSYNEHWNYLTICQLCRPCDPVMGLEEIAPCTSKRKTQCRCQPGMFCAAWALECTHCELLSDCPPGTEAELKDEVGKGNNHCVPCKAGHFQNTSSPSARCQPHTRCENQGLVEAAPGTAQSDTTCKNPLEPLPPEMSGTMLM

Each binder was assayed against T1, hLTβR-Fc-biotin (human, UniProt P36941 28-227, limits assumed, biotin-labelled with EZ-LINK Sulfo-NHS-LC-Biotin) (assay: dual antigen sandwich ELISA).
T1 construct: Bought (R&D systems); Detection antigen of the sandwich; also called LTPR (as printed once); not shown: Fc of the bought fusion protein

binding, binds:
B1
B2
B3
B4

— patent US20240043552A1 (Eli Lilly, published 2024)
